Data taken from patent US20250195488A1, “MEDICINE CONTAINING VITAMIN D DERIVATIVE OR PHARMACEUTICALLY ACCEPTABLE SALT OR SOLVATE THEREOF, USED IN COMBINATION WITH IMMUNOMODULATORY SUBSTANCE” (TEEJIN PHARMA LIMITED, priority 2022, published 2025).
The amount applied is not stated for every result.

Tested on: rat oligodendrocyte progenitor cells
Assay: Promotive activity of rat oligodendrocyte progenitor cell differentiation-2 (immunostaining of MBP)
Type: cell-based
Details: t-test vs DMSO group
Protocol: The promotive activity of oligodendrocyte progenitor cell (OPC) differentiation of the vitamin D derivatives was evaluated by immunostaining of MBP.
Subsequently, oligodendrocyte progenitor cell separation medium was added to the flask, and the mixture was similarly shaken for about 22 hours (37° C., 200 rpm), and the supernatant was collected to prepare oligodendrocyte progenitor cells.

C=C1/C(=C\C=C2/CCC[C@]3(C)[C@@H]([C@H](C)CN4CCN(C)C[C@@H]4C)CC[C@@H]23)C[C@@H](O)C[C@@H]1O [Compound F011, (1R,3S,Z)-5-(2-((1R,3aS,7aR,E)-1-((S)-1-((S)-2,4-dimethylpiperazin-1-yl)propan-2-yl)-7a-methyloctahydro-4H-inden-4-ylidene)ethylidene)-4-methylenecyclohexane-1,3-diol]
Significant difference (Test 5): *** (<0.001)

C[C@H](CCN1CCCC[C@H]1C)[C@H]1CC[C@H]2/C(=C/C=C3C[C@@H](O)C[C@H](O)C3)CCC[C@]12C [Compound G018, (1R,3R)-5-(2-((1R,3aS,7aR,E)-7a-methyl-1-((R)-4-((R)-2-methylpiperidin-1-yl)butan-2-yl)octahydro-4H-inden-4-ylidene)ethylidene)cyclohexane-1,3-diol]
Significant difference (Test 6): **** (<0.0001)

C[C@H](CN1CCC[C@@H]1C(C)(C)O)[C@H]1CC[C@H]2/C(=C/C=C3C[C@@H](O)C[C@H](O)C3)CCC[C@]12C [Compound G013, (1R,3R)-5-(2-((1R,3aS,7aR,E)-1-((S)-1-((R)-2-(2-hydroxypropan-2-yl)pyrrolidin-1-yl)propan-2-yl)-7a-methyloctahydro-4H-inden-4-ylidene)ethylidene)cyclohexane-1,3-diol]
Significant difference (Test 6): **** (<0.0001)

C[C@H](CN1CC[C@H](OCC(F)F)C1)[C@H]1CC[C@H]2/C(=C/C=C3C[C@@H](O)C[C@H](O)C3)CCC[C@]12C [Compound B057, (1R,3R)-5-(2-((1R,3aS,7aR,E)-1-((S)-1-((S)-3-(2,2-difluoroethoxy)pyrrolidin-1-yl)propan-2-yl)-7a-methyloctahydro-4H-inden-4-ylidene)ethylidene)cyclohexane-1,3-diol]
Significant difference (Test 2): **** (<0.0001)

C=C1/C(=C\C=C2/CCC[C@]3(C)[C@@H]([C@H](C)CN4CC[C@@H](C(F)F)C4)CC[C@@H]23)C[C@@H](O)C[C@@H]1O [Compound B024, (1R,3S,Z)-5-(2-((1R,3aS,7aR,E)-1-((S)-1-((R)-3-(difluoromethyl)pyrrolidin-1-yl)propan-2-yl)-7a-methyloctahydro-4H-inden-4-ylidene)ethylidene)-4-methylenecyclohexane-1,3-diol]
Significant difference (Test 1): **** (<0.0001)

C=C1[C@H](O)CC(=C/C=C2\CCC[C@]3(C)[C@@H]([C@H](C)CN4CCCC[C@@H]4C)CC[C@@H]23)C[C@H]1O [Compound H001, (1R,3R)-5-(2-((1R,3aS,7aR,E)-7a-methyl-1-((S)-1-((S)-2-methylpiperidin-1-yl)propan-2-yl)octahydro-4H-inden-4-ylidene)ethylidene)-2-methylenecyclohexane-1,3-diol]
Significant difference (Test 7): **** (<0.0001)

C[C@H](CN1CC[C@H](OC(F)F)C1)[C@H]1CC[C@H]2/C(=C/C=C3C[C@@H](O)C[C@H](O)C3)CCC[C@]12C [Compound B051, (1R,3R)-5-(2-((1R,3aS,7aR,E)-1-((S)-1-((S)-3-(difluoromethoxy)pyrrolidin-1-yl)propan-2-yl)-7a-methyloctahydro-4H-inden-4-ylidene)ethylidene)cyclohexane-1,3-diol]
Significant difference (Test 2): **** (<0.0001)

C[C@H](CN1CC[C@H](C(F)F)C1)[C@H]1CC[C@H]2/C(=C/C=C3C[C@@H](O)C[C@H](O)C3)CCC[C@]12C [Compound B022, (1R,3R)-5-(2-((1R,3aS,7aR,E)-1-((S)-1-((S)-3-(difluoromethyl)pyrrolidin-1l-yl)propan-2-yl)-7a-methyloctahydro-4H-inden-4-ylidene)ethylidene)cyclohexane-1,3-diol]
Significant difference (Test 1): **** (<0.0001)

C[C@H](CN1CCCC[C@@H]1C)[C@H]1CC[C@H]2/C(=C/C=C3C[C@@H](O)C[C@H](O)C3)CCC[C@]12C [Compound G001, (1R,3R)-5-(2-((1R,3aS,7aR,E)-7a-methyl-1-((S)-1-((S)-2-methylpiperidin-1-yl)propan-2-yl)octahydro-4H-inden-4-ylidene)ethylidene)cyclohexane-1,3-diol]
Significant difference (Test 3): **** (<0.0001)

C=C1[C@H](O)CC(=C/C=C2\CCC[C@]3(C)[C@@H]([C@H](C)CN4CC[C@H](CC(F)F)C4)CC[C@@H]23)C[C@H]1O [Compound B040, (1R,3R)-5-(2-((1R,3aS,7aR,E)-1-((S)-1-((R)-3-(2,2-difluoroethyl)pyrrolidin-1-yl)propan-2-yl)-7a-methyloctahydro-4H-inden-4-ylidene)ethylidene)-2-methylenecyclohexane-1,3-diol]
Significant difference (Test 1): **** (<0.0001)

C[C@H](CN1CCOC[C@H]1C)[C@H]1CC[C@H]2/C(=C/C=C3C[C@@H](O)C[C@H](O)C3)CCC[C@]12C [Compound G005, (1R,3R)-5-(2-((1R,3aS,7aR,E)-7a-methyl-1-((S)-1-((R)-3-methylmorpholino)propan-2-yl)octahydro-4H-inden-4-ylidene)ethylidene)cyclohexane-1,3-diol]
Significant difference (Test 3): **** (<0.0001)

C=C1[C@H](O)CC(=C/C=C2\CCC[C@]3(C)[C@@H]([C@H](C)CN4CCCC[C@H]4C)CC[C@@H]23)C[C@H]1O [Compound H002, (1R,3R)-5-(2-((1R,3aS,7aR,E)-7a-methyl-1-((S)-1-((R)-2-methylpiperidin-1-yl)propan-2-yl)octahydro-4H-inden-4-ylidene)ethylidene)-2-methylenecyclohexane-1,3-diol]
Significant difference (Test 9): **** (<0.0001)

C=C1[C@H](O)CC(=C/C=C2\CCC[C@]3(C)[C@@H]([C@H](C)CN4CCC[C@@H]4C(C)(C)OC)CC[C@@H]23)C[C@H]1O [Compound H015, (1R,3R)-5-(2-((1R,3aS,7aR,E)-1-((S)-1-((R)-2-(2-methoxypropan-2-yl)pyrrolidin-1-yl)propan-2-yl)-7a-methyloctahydro-4H-inden-4-ylidene)ethylidene)-2-methylenecyclohexane-1,3-diol]
Significant difference (Test 8): **** (<0.0001)

C=C1/C(=C\C=C2/CCC[C@]3(C)[C@@H]([C@H](C)CN4CC[C@@H](CC(F)F)C4)CC[C@@H]23)C[C@@H](O)C[C@@H]1O [Compound B037, (1R,3S,Z)-5-(2-((1R,3aS,7aR,E)-1-((S)-1-((S)-3-(2,2-difluoroethyl)pyrrolidin-1-yl)propan-2-yl)-7a-methyloctahydro-4H-inden-4-ylidene)ethylidene)-4-methylenecyclohexane-1,3-diol]
Significant difference (Test 1): **** (<0.0001)

C=C1/C(=C\C=C2/CCC[C@]3(C)[C@@H]([C@H](C)CN4CCCC[C@H]4C)CC[C@@H]23)C[C@@H](O)C[C@@H]1O [Compound F002, (1R,3S,Z)-5-(2-((1R,3aS,7aR,E)-7a-methyl-1-((S)-1-((R)-2-methylpiperidin-1-yl)propan-2-yl)octahydro-4H-inden-4-ylidene)ethylidene)-4-methylenecyclohexane-1,3-diol]
Significant difference (Test 7): ** (<0.01)

C[C@H](CCN1CCOCC1)[C@H]1CC[C@H]2/C(=C/C=C3C[C@@H](O)C[C@H](O)C3)CCC[C@]12C [Compound D023, (1R,3R)-5-(2-((1R,3aS,7aR,E)-7a-methyl-1-((R)-4-morpholinobutan-2-yl)octahydro-4H-inden-4-ylidene)ethylidene)cyclohexane-1,3-diol]
Significant difference (Test 2): **** (<0.0001)

C=C1[C@H](O)CC(=C/C=C2\CCC[C@]3(C)[C@@H]([C@H](C)CN4CCC[C@@H]4C(C)(C)O)CC[C@@H]23)C[C@H]1O [Compound H013, (1R,3R)-5-(2-((1R,3aS,7aR,E)-1-((S)-1-((R)-2-(2-hydroxypropan-2-yl)pyrrolidin-1-yl)propan-2-yl)-7a-methyloctahydro-4H-inden-4-ylidene)ethylidene)-2-methylenecyclohexane-1,3-diol]
Significant difference (Test 8): **** (<0.0001)

C=C1[C@H](O)CC(=C/C=C2\CCC[C@]3(C)[C@@H]([C@H](C)CN4CC[C@@H](CC(F)F)C4)CC[C@@H]23)C[C@H]1O [Compound B041, (1R,3R)-5-(2-((1R,3aS,7aR,E)-1-((S)-1-((S)-3-(2,2-difluoroethyl)pyrrolidin-1-yl)propan-2-yl)-7a-methyloctahydro-4H-inden-4-ylidene)ethylidene)-2-methylenecyclohexane-1,3-diol]
Significant difference (Test 1): **** (<0.0001)

C[C@H](CN1CC[C@@H](CC(F)F)C1)[C@H]1CC[C@H]2/C(=C/C=C3C[C@@H](O)C[C@H](O)C3)CCC[C@]12C [Compound B043, (1R,3R)-5-(2-((1R,3aS,7aR,E)-1-((S)-1-((S)-3-(2,2-difluoroethyl)pyrrolidin-1-yl)propan-2-yl)-7a-methyloctahydro-4H-inden-4-ylidene)ethylidene)cyclohexane-1,3-diol]
Significant difference (Test 2): **** (<0.0001)

C=C1[C@H](O)CC(=C/C=C2\CCC[C@]3(C)[C@@H]([C@H](C)CN4CCCC(O)(C(F)F)C4)CC[C@@H]23)C[C@H]1O (single isomer, unassigned) [Compound C036a]
Significant difference (Test 2): **** (<0.0001)

C[C@H](CN1CCOCC12CC2)[C@H]1CC[C@H]2/C(=C/C=C3C[C@@H](O)C[C@H](O)C3)CCC[C@]12C [Compound G007, (1R,3R)-5-(2-((1R,3aS,7aR,E)-1-((S)-1-(7-oxa-4-azaspiro[2.5]octan-4-yl)propan-2-yl)-7a-methyloctahydro-4H-inden-4-ylidene)ethylidene)cyclohexane-1,3-diol]
Significant difference (Test 4): **** (<0.0001)

C[C@H](CN1CCC[C@H]1C(C)(C)O)[C@H]1CC[C@H]2/C(=C/C=C3C[C@@H](O)C[C@H](O)C3)CCC[C@]12C [Compound G014, (1R,3R)-5-(2-((1R,3aS,7aR,E)-1-((S)-1-((S)-2-(2-hydroxypropan-2-yl)pyrrolidin-1-yl)propan-2-yl)-7a-methyloctahydro-4H-inden-4-ylidene)ethylidene)cyclohexane-1,3-diol]
Significant difference (Test 6): **** (<0.0001)
